According to article PMC9372748:
These are yes or no findings as the source states them, for the method shown. Binding seen in cells or lysates may run through a third protein. These calls come from enrichment with a bait or labelling near it, and not all partners need be listed.

Amino acid sequences for entries named in this document (tags omitted). A change or cut given only in a name is not applied to a line headed by its entry.
UniProt P35637: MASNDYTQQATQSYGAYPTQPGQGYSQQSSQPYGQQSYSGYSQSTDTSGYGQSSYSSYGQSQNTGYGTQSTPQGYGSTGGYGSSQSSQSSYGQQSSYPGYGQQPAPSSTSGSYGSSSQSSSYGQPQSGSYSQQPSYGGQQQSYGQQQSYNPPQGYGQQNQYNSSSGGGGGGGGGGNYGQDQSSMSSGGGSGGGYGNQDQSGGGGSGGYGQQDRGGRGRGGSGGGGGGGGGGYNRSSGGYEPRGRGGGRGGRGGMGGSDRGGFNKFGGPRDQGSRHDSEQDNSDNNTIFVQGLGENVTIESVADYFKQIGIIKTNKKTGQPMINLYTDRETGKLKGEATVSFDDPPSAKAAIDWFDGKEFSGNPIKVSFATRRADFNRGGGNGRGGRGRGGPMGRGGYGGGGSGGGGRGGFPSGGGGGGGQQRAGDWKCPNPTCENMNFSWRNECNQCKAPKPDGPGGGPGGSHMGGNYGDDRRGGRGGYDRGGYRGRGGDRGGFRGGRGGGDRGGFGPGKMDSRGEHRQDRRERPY
UniProt Q9UHV7: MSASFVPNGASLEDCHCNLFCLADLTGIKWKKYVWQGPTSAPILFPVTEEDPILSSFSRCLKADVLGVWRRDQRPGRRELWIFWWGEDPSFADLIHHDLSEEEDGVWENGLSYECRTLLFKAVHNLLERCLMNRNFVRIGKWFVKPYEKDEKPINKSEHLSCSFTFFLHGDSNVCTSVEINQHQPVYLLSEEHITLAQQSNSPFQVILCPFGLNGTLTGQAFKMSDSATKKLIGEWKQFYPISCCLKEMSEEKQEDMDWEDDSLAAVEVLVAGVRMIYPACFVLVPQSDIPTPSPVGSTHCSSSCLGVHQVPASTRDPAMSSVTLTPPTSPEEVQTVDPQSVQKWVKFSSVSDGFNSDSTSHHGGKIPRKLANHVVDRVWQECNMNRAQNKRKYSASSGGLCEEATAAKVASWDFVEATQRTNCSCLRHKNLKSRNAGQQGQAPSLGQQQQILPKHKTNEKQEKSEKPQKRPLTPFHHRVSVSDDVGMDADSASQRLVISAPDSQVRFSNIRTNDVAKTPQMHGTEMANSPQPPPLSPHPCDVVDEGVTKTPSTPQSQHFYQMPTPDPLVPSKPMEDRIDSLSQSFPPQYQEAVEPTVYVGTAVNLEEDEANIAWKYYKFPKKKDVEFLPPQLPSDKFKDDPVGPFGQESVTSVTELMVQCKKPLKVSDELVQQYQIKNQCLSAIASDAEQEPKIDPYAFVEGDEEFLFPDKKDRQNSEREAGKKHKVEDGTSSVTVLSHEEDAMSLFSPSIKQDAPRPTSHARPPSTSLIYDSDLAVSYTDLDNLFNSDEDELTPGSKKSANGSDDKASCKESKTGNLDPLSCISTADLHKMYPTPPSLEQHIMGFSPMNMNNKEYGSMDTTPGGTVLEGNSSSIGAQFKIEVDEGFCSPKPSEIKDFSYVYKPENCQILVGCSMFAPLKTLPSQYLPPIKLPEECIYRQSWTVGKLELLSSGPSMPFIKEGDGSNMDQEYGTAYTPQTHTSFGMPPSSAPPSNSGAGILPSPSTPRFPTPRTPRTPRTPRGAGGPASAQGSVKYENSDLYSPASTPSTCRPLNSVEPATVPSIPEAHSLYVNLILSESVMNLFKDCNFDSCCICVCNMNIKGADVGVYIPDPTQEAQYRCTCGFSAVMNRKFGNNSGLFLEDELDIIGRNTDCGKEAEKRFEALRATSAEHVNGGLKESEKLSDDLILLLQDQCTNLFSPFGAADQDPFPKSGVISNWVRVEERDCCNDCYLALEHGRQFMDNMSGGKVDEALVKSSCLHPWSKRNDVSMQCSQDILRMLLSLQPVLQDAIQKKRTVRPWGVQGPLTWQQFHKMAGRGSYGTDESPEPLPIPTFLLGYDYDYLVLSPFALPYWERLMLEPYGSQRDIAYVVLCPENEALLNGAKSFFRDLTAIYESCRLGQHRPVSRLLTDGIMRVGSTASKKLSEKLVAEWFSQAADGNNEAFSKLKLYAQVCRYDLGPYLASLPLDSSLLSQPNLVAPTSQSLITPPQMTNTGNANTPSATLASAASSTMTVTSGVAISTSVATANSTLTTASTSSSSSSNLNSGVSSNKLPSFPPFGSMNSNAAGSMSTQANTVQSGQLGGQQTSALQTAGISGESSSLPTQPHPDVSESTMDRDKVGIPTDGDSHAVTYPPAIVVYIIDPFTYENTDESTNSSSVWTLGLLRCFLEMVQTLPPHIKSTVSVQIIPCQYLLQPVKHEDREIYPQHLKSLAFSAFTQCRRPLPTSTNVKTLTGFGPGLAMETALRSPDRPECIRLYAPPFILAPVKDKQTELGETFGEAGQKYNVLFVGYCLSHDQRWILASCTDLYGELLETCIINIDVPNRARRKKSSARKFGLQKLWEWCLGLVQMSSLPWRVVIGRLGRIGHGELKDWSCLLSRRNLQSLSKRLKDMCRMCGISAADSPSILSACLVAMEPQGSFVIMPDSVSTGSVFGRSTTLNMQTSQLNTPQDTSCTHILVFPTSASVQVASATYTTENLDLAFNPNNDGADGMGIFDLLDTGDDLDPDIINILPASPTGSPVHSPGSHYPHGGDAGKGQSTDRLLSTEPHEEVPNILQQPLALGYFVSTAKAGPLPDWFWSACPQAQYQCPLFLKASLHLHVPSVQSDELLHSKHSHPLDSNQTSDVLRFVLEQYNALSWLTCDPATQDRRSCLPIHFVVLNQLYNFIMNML
UniProt O75128: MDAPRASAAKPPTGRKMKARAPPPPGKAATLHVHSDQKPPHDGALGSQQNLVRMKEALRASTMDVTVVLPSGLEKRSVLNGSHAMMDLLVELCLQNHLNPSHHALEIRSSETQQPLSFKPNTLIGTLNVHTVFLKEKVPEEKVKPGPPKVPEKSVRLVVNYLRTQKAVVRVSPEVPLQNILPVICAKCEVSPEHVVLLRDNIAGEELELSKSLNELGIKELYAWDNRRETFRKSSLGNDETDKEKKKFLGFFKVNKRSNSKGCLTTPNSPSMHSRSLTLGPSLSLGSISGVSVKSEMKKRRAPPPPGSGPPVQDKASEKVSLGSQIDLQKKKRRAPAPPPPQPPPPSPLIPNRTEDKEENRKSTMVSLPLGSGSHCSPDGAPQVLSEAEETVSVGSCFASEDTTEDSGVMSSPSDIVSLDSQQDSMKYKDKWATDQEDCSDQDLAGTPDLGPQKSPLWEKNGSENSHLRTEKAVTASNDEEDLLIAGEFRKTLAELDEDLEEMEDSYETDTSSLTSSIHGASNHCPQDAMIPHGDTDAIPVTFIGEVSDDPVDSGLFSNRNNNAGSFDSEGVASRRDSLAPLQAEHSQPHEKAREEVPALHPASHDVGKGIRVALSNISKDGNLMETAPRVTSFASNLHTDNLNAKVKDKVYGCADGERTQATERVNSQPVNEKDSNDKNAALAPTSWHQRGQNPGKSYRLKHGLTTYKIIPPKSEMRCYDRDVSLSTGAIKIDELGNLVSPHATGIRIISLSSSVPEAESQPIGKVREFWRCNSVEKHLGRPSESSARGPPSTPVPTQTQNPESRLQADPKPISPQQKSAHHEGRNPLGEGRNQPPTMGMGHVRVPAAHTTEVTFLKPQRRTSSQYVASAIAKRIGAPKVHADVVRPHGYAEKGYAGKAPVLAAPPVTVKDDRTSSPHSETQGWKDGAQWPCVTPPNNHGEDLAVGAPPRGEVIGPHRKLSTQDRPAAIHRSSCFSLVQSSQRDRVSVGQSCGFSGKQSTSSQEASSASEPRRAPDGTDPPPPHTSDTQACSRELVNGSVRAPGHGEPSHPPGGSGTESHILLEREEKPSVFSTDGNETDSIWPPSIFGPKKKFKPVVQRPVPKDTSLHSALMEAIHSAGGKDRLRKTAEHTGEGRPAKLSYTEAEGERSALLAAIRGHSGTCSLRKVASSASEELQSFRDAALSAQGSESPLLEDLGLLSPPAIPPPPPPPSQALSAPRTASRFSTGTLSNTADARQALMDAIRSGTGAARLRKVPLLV

B1: importin-11 (IPO11) (protein, UniProt Q9UI26 1-975)
chain: MDLNSASTVVLQVLTQATSQDTAVLKPAEEQLKQWETQPGFYSVLLNIFTNHTLDINVRWLAVLYFKHGIDRYWRRVAPHALSEEEKTTLRAGLITNFNEPINQIATQIAVLIAKVARLDCPRQWPELIPTLIESVKVQDDLRQHRALLTFYHVTKTLASKRLAADRKLFYDLASGIYNFACSLWNHHTDTFLQEVSSGNEAAILSSLERTLLSLKVLRKLTVNGFVEPHKNMEVMGFLHGIFERLKQFLECSRSIGTDNVCRDRLEKTIILFTKVLLDFLDQHPFSFTPLIQRSLEFSVSYVFTEVGEGVTFERFIVQCMNLIKMIVKNYAYKPSKNFEDSSPETLEAHKIKMAFFTYPTLTEICRRLVSHYFLLTEEELTMWEEDPEGFTVEETGGDSWKYSLRPCTEVLFIDIFHEYNQTLTPVLLEMMQTLQGPTNVEDMNALLIKDAVYNAVGLAAYELFDSVDFDQWFKNQLLPELQVIHNRYKPLRRRVIWLIGQWISVKFKSDLRPMLYEAICNLLQDQDLVVRIETATTLKLTVDDFEFRTDQFLPYLETMFTLLFQLLQQVTECDTKMHVLHVLSCVIERVNMQIRPYVGCLVQYLPLLWKQSEEHNMLRCAILTTLIHLVQGLGADSKNLYPFLLPVIQLSTDVSQPPHVYLLEDGLELWLVTLENSPCITPELLRIFQNMSPLLELSSENLRTCFKIINGYIFLSSTEFLQTYAVGLCQSFCELLKEITTEGQVQVLKVVENALKVNPILGPQMFQPILPYVFKGIIEGERYPVVMSTYLGVMGRVLLQNTSFFSSLLNEMAHKFNQEMDQLLGNMIEMWVDRMDNITQPERRKLSALALLSLLPSDNSVIQDKFCGIINISVEGLHDVMTEDPETGTYKDCMLMSHLEEPKVTEDEEPPTEQDKRKKMLALKDPVHTVSLQQFIYEKLKAQQEMLGEQGFQSLMETVDTEIVTQLQEFLQGF
B2: exportin-7 (XPO7) (protein, UniProt Q9UIA9 1-1087)
chain: MADHVQSLAQLENLCKQLYETTDTTTRLQAEKALVEFTNSPDCLSKCQLLLERGSSSYSQLLAATCLTKLVSRTNNPLPLEQRIDIRNYVLNYLATRPKLATFVTQALIQLYARITKLGWFDCQKDDYVFRNAITDVTRFLQDSVEYCIIGVTILSQLTNEINQADTTHPLTKHRKIASSFRDSSLFDIFTLSCNLLKQASGKNLNLNDESQHGLLMQLLKLTHNCLNFDFIGTSTDESSDDLCTVQIPTSWRSAFLDSSTLQLFFDLYHSIPPSFSPLVLSCLVQIASVRRSLFNNAERAKFLSHLVDGVKRILENPQSLSDPNNYHEFCRLLARLKSNYQLGELVKVENYPEVIRLIANFTVTSLQHWEFAPNSVHYLLSLWQRLAASVPYVKATEPHMLETYTPEVTKAYITSRLESVHIILRDGLEDPLEDTGLVQQQLDQLSTIGRCEYEKTCALLVQLFDQSAQSYQELLQSASASPMDIAVQEGRLTWLVYIIGAVIGGRVSFASTDEQDAMDGELVCRVLQLMNLTDSRLAQAGNEKLELAMLSFFEQFRKIYIGDQVQKSSKLYRRLSEVLGLNDETMVLSVFIGKIITNLKYWGRCEPITSKTLQLLNDLSIGYSSVRKLVKLSAVQFMLNNHTSEHFSFLGINNQSNLTDMRCRTTFYTALGRLLMVDLGEDEDQYEQFMLPLTAAFEAVAQMFSTNSFNEQEAKRTLVGLVRDLRGIAFAFNAKTSFMMLFEWIYPSYMPILQRAIELWYHDPACTTPVLKLMAELVHNRSQRLQFDVSSPNGILLFRETSKMITMYGNRILTLGEVPKDQVYALKLKGISICFSMLKAALSGSYVNFGVFRLYGDDALDNALQTFIKLLLSIPHSDLLDYPKLSQSYYSLLEVLTQDHMNFIASLEPHVIMYILSSISEGLTALDTMVCTGCCSCLDHIVTYLFKQLSRSTKKRTTPLNQESDRFLHIMQQHPEMIQQMLSTVLNIIIFEDCRNQWSMSRPLLGLILLNEKYFSDLRNSIVNSQPPEKQQAMHLCFENLMEGIERNLLTKNRDRFTQNLSAFRREVNDSMKNSTYGVNSNDMMS
B3: transportin-2 (TNPO2) (protein, UniProt O14787 1-897)
chain: MDWQPDEQGLQQVLQLLKDSQSPNTATQRIVQDKLKQLNQFPDFNNYLIFVLTRLKSEDEPTRSLSGLILKNNVKAHYQSFPPPVADFIKQECLNNIGDASSLIRATIGILITTIASKGELQMWPELLPQLCNLLNSEDYNTCEGAFGALQKICEDSSELLDSDALNRPLNIMIPKFLQFFKHCSPKIRSHAIACVNQFIMDRAQALMDNIDTFIEHLFALAVDDDPEVRKNVCRALVMLLEVRIDRLIPHMHSIIQYMLQRTQDHDENVALEACEFWLTLAEQPICKEVLASHLVQLIPILVNGMKYSEIDIILLKGDVEEDEAVPDSEQDIKPRFHKSRTVTLPHEAERPDGSEDAEDDDDDDALSDWNLRKCSAAALDVLANVFREELLPHLLPLLKGLLFHPEWVVKESGILVLGAIAEGCMQGMVPYLPELIPHLIQCLSDKKALVRSIACWTLSRYAHWVVSQPPDMHLKPLMTELLKRILDGNKRVQEAACSAFATLEEEACTELVPYLSYILDTLVFAFGKYQHKNLLILYDAIGTLADSVGHHLNQPEYIQKLMPPLIQKWNELKDEDKDLFPLLECLSSVATALQSGFLPYCEPVYQRCVTLVQKTLAQAMMYTQHPEQYEAPDKDFMIVALDLLSGLAEGLGGHVEQLVARSNIMTLLFQCMQDSMPEVRQSSFALLGDLTKACFIHVKPCIAEFMPILGTNLNPEFISVCNNATWAIGEICMQMGAEMQPYVQMVLNNLVEIINRPNTPKTLLENTGRLTSPSAIPAITIGRLGYVCPQEVAPMLQQFIRPWCTSLRNIRDNEEKDSAFRGICMMIGVNPGGVVQDFIFFCDAVASWVSPKDDLRDMFYKILHGFKDQVGEDNWQQFSEQFPPLLKERLAAFYGV
B4: exportin-6 (XPO6) (protein, UniProt Q96QU8 1-1125)
chain: MASEEASLRALESLMTEFFHDCTTNERKREIEELLNNFAQQIGAWRFCLYFLSSTRNDYVMMYSLTVFENLINKMWLGVPSQDKMEIRSCLPKLLLAHHKTLPYFIRNKLCKVIVDIGRQDWPMFYHDFFTNILQLIQSPVTTPLGLIMLKTTSEELACPREDLSVARKEELRKLLLDQVQTVLGLLTGILETVWDKHSVTAATPPPSPTSGESGDLLSNLLQSPSSAKLLNQPIPILDVESEYICSLALECLAHLFSWIPLSASITPSLLTTIFHFARFGCDIRARKMASVNGSSQNCVSGQERGRLGVLAMSCINELMSKNCVPMEFEEYLLRMFQQTFYLLQKITKDNNAHTVKSRLEELDESYIEKFTDFLRLFVSVHLRRIESYSQFPVVEFLTLLFKYTFHQPTHEGYFSCLDIWTLFLDYLTSKIKSRLGDKEAVLNRYEDALVLLLTEVLNRIQFRYNQAQLEELDDETLDDDQQTEWQRYLRQSLEVVAKVMELLPTHAFSTLFPVLQDNLEVYLGLQQFIVTSGSGHRLNITAENDCRRLHCSLRDLSSLLQAVGRLAEYFIGDVFAARFNDALTVVERLVKVTLYGSQIKLYNIETAVPSVLKPDLIDVHAQSLAALQAYSHWLAQYCSEVHRQNTQQFVTLISTTMDAITPLISTKVQDKLLLSACHLLVSLATTVRPVFLISIPAVQKVFNRITDASALRLVDKAQVLVCRALSNILLLPWPNLPENEQQWPVRSINHASLISALSRDYRNLKPSAVAPQRKMPLDDTKLIIHQTLSVLEDIVENISGESTKSRQICYQSLQESVQVSLALFPAFIHQSDVTDEMLSFFLTLFRGLRVQMGVPFTEQIIQTFLNMFTREQLAESILHEGSTGCRVVEKFLKILQVVVQEPGQVFKPFLPSIIALCMEQVYPIIAERPSPDVKAELFELLFRTLHHNWRYFFKSTVLASVQRGIAEEQMENEPQFSAIMQAFGQSFLQPDIHLFKQNLFYLETLNTKQKLYHKKIFRTAMLFQFVNVLLQVLVHKSHDLLQEEIGIAIYNMASVDFDGFFAAFLPEFLTSCDGVDANQKSVLGRNFKMDRDLPSFTQNVHRLVNDLRYYRLCNDSLPPGTVKL
B5: PHLDB2 (Pleckstrin homology–like domain family B member 2) (protein, UniProt Q86SQ0 1-1253)
chain: MEEHSYIQKELDLQNGSLEEDSVVHSVENDSQNMMESLSPKKYSSSLRFKANGDYSGSYLTLSQPVPAKRSPSPLGTSVRSSPSLAKIQGSKQFSYDGTDKNIPMKPPTPLLNTTSSLSGYPLGRADFDHYTGRDSERALRLSEKPPYSKYSSRHKSHDNVYSLGGLEGRKASGSLLAMWNGSSLSDAGPPPISRSGAASMPSSPKQARKMSIQDSLALQPKLTRHKELASENINLRTRKYSSSSLSHMGAYSRSLPRLYRATENQLTPLSLPPRNSLGNSKRTKLGEKDLPHSVIDNDNYLNFSSLSSGALPYKTSASEGNPYVSSTLSVPASPRVARKMLLASTSSCASDDFDQASYVGTNPSHSLLAGESDRVFATRRNFSCGSVEFDEADLESLRQASGTPQPALRERKSSISSISGRDDLMDYHRRQREERLREQEMERLERQRLETILSLCAEYTKPDSRLSTGTTVEDVQKINKELEKLQLSDEESVFEEALMSPDTRYRCHRKDSLPDADLASCGSLSQSSASFFTPRSTRNDELLSDLTRTPPPPSSTFPKASSESSYLSILPKTPEGISEEQRSQELAAMEETRIVILNNLEELKQKIKDINDQMDESFRELDMECALLDGEQKSETTELMKEKEILDHLNRKIAELEKNIVGEKTKEKVKLDAEREKLERLQELYSEQKTQLDNCPESMREQLQQQLKRDADLLDVESKHFEDLEFQQLEHESRLDEEKENLTQQLLREVAEYQRNIVSRKEKISALKKQANHIVQQAQREQDHFVKEKNNLIMMLQREKENLCNLEKKYSSLSGGKGFPVNPNTLKEGYISVNEINEPCGNSTNLSPSTQFPADADAVATEPATAVLASQPQSKEHFRSLEERKKQHKEGLYLSDTLPRKKTTSSISPHFSSATMGRSITPKAHLPLGQSNSCGSVLPPSLAAMAKDSESRRMLRGYNHQQMSEGHRQKSEFYNRTASESNVYLNSFHYPDHSYKDQAFDTLSLDSSDSMETSISACSPDNISSASTSNIARIEEMERLLKQAHAEKTRLLESREREMEAKKRALEEEKRRREILEKRLQEETSQRQKLIEKEVKIRERQRAQARPLTRYLPVRKEDFDLRSHVETAGHNIDTCYHVSITEKTCRGFLIKMGGKIKTWKKRWFVFDRNKRTFSYYADKHETKLKGVIYFQAIEEVYYDHLKNANKSPNPLLTFSVKTHDRIYYMVAPSPEAMRIWMDVIVTGAEGYTHFLL

Target: APEX2-FUS WT (human) (UniProt P35637)
Assay: proximity labelling; APEX2-FUS fusions transfected in HEK293T; 500 uM biotin-phenol 30 min, 1 mM H2O2 1 min; biotinylated proteins enriched on streptavidin magnetic beads, on-bead digestion, label-free LC-MS/MS; SAINT probability >=0.95 against untransfected control cells

Row | binding | Molecule
1 | binds | MED13 (Mediator of RNA polymerase II transcription subunit 13) (from UniProt Q9UHV7 1-2174)
2 | binds | COBL (Cordon-bleu WH2 repeat protein) (from UniProt O75128 1-1261)

Target: APEX2-FUS P525L (human) (UniProt P35637)
Assay: as above

Row | binding | Molecule
3 | binds | B1
4 | binds | B2
5 | binds | B3
6 | binds | B4

Target: APEX2-FUS WT (human) (UniProt P35637)
Assay: as above
Remark: another data set of the same source

Row | binding | Molecule
7 | binds | B1
8 | binds | B2
9 | binds | B3
10 | binds | B5
11 | binds | B4
